Reference: PubChem BioAssay AID2551 (National Center for Advancing Translational Sciences (NCATS), 2010)
In all, about 310,000 compounds went through this assay and about 17,000 (5.5%) were called active. The shares of active, inactive and inconclusive entries below differ from those in the screen. Calls follow the shape of the dose curve; as a rule, active = well fitted inhibition curve with a large enough effect; inconclusive = small, poorly fitted or top-dose-only effect, or effect the other way; inactive = no such curve, though single readings can be large or run the other way. Where the call is inconclusive, the potency comes from a doubtful curve fit.

The chains behind the UniProt entries cited, without tags or fusion partners. Where a name states a change or a piece, a line headed by the entry shows the natural chain unless it says otherwise.
UniProt P51450: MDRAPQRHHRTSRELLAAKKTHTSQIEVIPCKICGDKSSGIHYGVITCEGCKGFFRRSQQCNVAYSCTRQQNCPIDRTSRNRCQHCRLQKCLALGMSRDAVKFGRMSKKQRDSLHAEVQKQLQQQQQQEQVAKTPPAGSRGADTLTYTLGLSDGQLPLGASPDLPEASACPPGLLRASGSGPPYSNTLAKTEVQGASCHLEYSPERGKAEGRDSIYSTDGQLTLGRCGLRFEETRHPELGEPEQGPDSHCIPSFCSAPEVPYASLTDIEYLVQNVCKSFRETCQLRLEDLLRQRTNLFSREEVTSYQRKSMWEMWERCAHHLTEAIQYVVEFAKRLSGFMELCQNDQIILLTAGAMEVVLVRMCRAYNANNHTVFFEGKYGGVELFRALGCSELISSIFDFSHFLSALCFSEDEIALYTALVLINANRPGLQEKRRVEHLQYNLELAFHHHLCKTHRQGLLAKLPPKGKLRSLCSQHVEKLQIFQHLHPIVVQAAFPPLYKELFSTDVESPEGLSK

Molecular target: Nuclear receptor ROR-gamma (Mus musculus) (UniProt P51450)
Assay: qHTS for inhibitors of ROR gamma transcriptional activity; also: nearly all actives have a fitted effect of over 60% in size
Conditions: Drosophila S2 Gal4-RORgamma UAS-luciferase reporter, 20 h; series mostly up to 53.6 µM
Summary of the method: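 ROR gamma transcriptional activity was tracked as Gal4-UAS luciferase output in stably transfected Drosophila Schneider cells, with compound added 1 hr before 700 uM copper sulfate induction and a 20 hr ambient-temperature incubation.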
Potency is read from the fitted curve at half-maximal effect.

SMILES | Potency
CCN(C(=O)c1cc(S(=O)(=O)N2CCc3ccccc32)cn1C)c1ccccc1 | inconclusive: 12.6 µM [activator, partial curve]
Cc1nn(C(C)C(=O)N2CCN(c3ccccn3)CC2)c(=O)c2cc3occc3n12 (configuration not stated) | inactive
CC(C)(C)c1ccc(/C=N/n2cnnc2)cc1 | inactive
CN(C)c1ccc(C(=O)N(Cc2ccccc2)Cc2ccccc2)cc1 | inconclusive: 7.94 µM [activator, partial curve]
Cc1ccc(/C=C2\SC(=S)N(CCCC(=O)NNC(=O)c3ccccc3O)C2=O)cc1 | active: 1.58 µM
Cc1cccc(C)c1NC(=O)COC(=O)COc1ccc2c(C)cc(=O)oc2c1 | inactive
Cc1cccc(C)c1NC(=S)NCCc1ccccn1 | active: 1.41 µM
Cn1cccc1/C=N/NC(=O)C12CC3CC(CC(C3)C1)C2 | inconclusive: 35.5 µM [inhibitor, single point]
CC(C)(C)c1ccc(C(=O)OCC(=O)Nc2sc3c(c2C#N)CCC3)cc1 | inactive
Cc1ccc(C(=O)C(C)CN2CCCCC2)cc1 (configuration not stated) | inactive
O=C(c1ccco1)N1CCN(c2ccc(Cl)cc2)CC1 | inconclusive: 35.5 µM [activator, single point]
COc1ccc(N2C(=O)CC(NNc3nc4ccccc4s3)C2=O)cc1 (configuration not stated) | inactive
Cc1cccc(C2=NN(c3ccccc3)[C@H](CO)[C@H]2c2ccccc2)c1 | inactive
COc1cc(-c2noc(CCCC(=O)NC3CCCCC3)n2)cc(OC)c1OC | inactive
COc1ccc2cc(CN(Cc3cccnc3)Cc3nnnn3Cc3ccccc3)c(=O)[nH]c2c1 | inconclusive: 15.8 µM [activator, partial curve]
Cc1c(S(=O)(=O)Nc2ccc3c(c2)OCCO3)c(=O)n(C)c(=O)n1C | inactive
O=C(CSc1nc2ccccc2c2nc3ccccc3n12)NCc1ccco1 | inconclusive: 3.16 µM [inhibitor, single point]
CC(C)N(Cc1ccccc1)C(=O)/C=C/c1ccccc1[N+](=O)[O-] | inconclusive: 35.5 µM [activator, single point]
Cc1nn2cc(-c3ccccc3)nc2s1 | active: 11.2 µM
Cc1cc(N/N=C/c2ccc(O)cc2O)c2ccccc2n1 | inconclusive: 1.58 µM [inhibitor, partial curve]
CC1CN(S(=O)(=O)c2ccc(C(=O)Nc3sccc3C(N)=O)cc2)CC(C)O1 (configuration not stated) | inconclusive: 25.1 µM [activator, single point]
CCCc1ccc(Oc2cn[nH]c2-c2ccc(O)cc2O)cc1 | active: 15.8 µM
CCN(CC)CCCNC(=O)c1ccc2c(Cl)c3c(nc2c1)CCCC3 | inactive
CCc1c(O)nc(SC2CC(=O)N(c3ccc(F)c(Cl)c3)C2=O)[nH]c1=O (configuration not stated) | inactive
O=C(CN1CCCCC1)Nc1nnc(-c2ccc([N+](=O)[O-])cc2)s1 | active: 10 µM
COc1ccccc1-n1cnc2c(c1=O)c1nc3ccccc3nc1n2-c1ccc(C)cc1 | inconclusive: 3.55 µM [activator, full curve]

Ordered by heavy-atom count (descending): some entries from above
SMILES | Potency
Cc1nn(C(C)C(=O)N2CCN(c3ccccn3)CC2)c(=O)c2cc3occc3n12 (configuration not stated) | inactive
COc1ccc(N2C(=O)CC(NNc3nc4ccccc4s3)C2=O)cc1 (configuration not stated) | inactive
Cc1cccc(C)c1NC(=S)NCCc1ccccn1 | active: 1.41 µM
CC(C)(C)c1ccc(/C=N/n2cnnc2)cc1 | inactive

(more compounds)

SMILES | Potency
O=C(Nc1ccc2oc(-c3cccnc3)nc2c1)c1cccnc1 | inactive
COc1ccccc1NC(=O)C(C)OC(=O)CCC1CCCCC1 (configuration not stated) | inactive
O=C(c1sccc1-c1ccccc1)N1CCN(S(=O)(=O)c2ccccc2)CC1 | inactive
O=c1[nH]cnc2c1cnn2Cc1ccccc1Cl | inactive
CCOC(=O)N1CCN(C(=O)c2ccc3c(c2)N=C(C)c2cc(Cl)ccc2S3)CC1 | inconclusive: 35.5 µM [activator, single point]
O=C(N/N=C/c1ccco1)c1cc(-c2cccc3ccccc23)n[nH]1 | inconclusive: 3.55 µM [inhibitor, single point]
Cc1nnc(SCc2cccc(CSc3nnc(C)s3)c2)s1 | inconclusive: 35.5 µM [activator, single point]
O=C(COC(=O)[C@@H]1CC(O)CN1S(=O)(=O)c1ccccc1[N+](=O)[O-])c1ccccc1 (some centres not stated) | inconclusive: 15.8 µM [activator, single point]
COc1cc(C(=O)Nc2ccc3c(c2)C(=O)c2ccccc2C3=O)cc(OC)c1OC | inactive
COc1ccc(-c2csc(NC(=O)COC(=O)c3ccc(Br)o3)n2)cc1 | inconclusive: 35.5 µM [inhibitor, single point]
O=C(CCl)Nc1ccc2c(c1)OCO2 | active: 17.8 µM
O=C(NC(=S)N1CCN(c2ccc([N+](=O)[O-])cc2)CC1)c1ccccc1 | active: 0.282 µM
Cc1nnc2n(Cc3ccccc3)c(=O)c3c4c(sc3n12)COC(C(C)C)C4 (configuration not stated) | inconclusive: 22.4 µM [inhibitor, single point]
O=C1NC(=Nc2ccccc2)S/C1=C/c1cccs1 | inconclusive: 35.5 µM [inhibitor, single point]
CCOC(=O)CSc1nnc(-c2ccoc2C)n1-c1ccc(OCC)cc1 | inactive
CC1(C)OC(=O)C(=NNc2ccc(Br)cc2)C(=O)O1 | inconclusive: 35.5 µM [activator, single point]
O=S(=O)(c1ccc2c(c1)OCCO2)N1CCC(n2cnc3cc(F)ccc32)CC1 | inconclusive: 20 µM [activator, partial curve, poor fit]
CCOC(=O)C1(Cc2ccc(Cl)cc2)CCN(Cc2cn(CC)nc2C)CC1 | inactive
Cc1ccccc1/C=N/n1c(C2CCCCC2)n[nH]c1=S | active: 15.8 µM
COc1ccc(NC(=O)CC(C(=O)O)C(C)c2ccccc2)cc1 (configuration not stated) | inconclusive: 35.5 µM [inhibitor, single point]
NNC(=O)c1snnc1-c1ccccc1 | inconclusive: 14.1 µM [inhibitor, single point]
COc1cccc(C(=O)O/N=C(\N)c2ccncc2)c1OC | inactive
Cc1nonc1OC(C)CNc1ccc([N+](=O)[O-])cc1 (configuration not stated) | inconclusive: 22.4 µM [activator, single point]
CC(C)(C)Nc1oc(-c2ccccc2)nc1-c1ccccc1 | inactive
Cc1nc2cc(-c3ccccc3)sc2c(=O)n1N | active: 0.708 µM
O=C1c2cccc3cccc(c23)C(=O)N1/N=C/c1ccc(O)cc1O | inactive

Random excerpt: 3 entries already listed
SMILES | Potency
Cc1cc(N/N=C/c2ccc(O)cc2O)c2ccccc2n1 | inconclusive: 1.58 µM [inhibitor, partial curve]
COc1ccc(N2C(=O)CC(NNc3nc4ccccc4s3)C2=O)cc1 (configuration not stated) | inactive
O=C(NC(=S)N1CCN(c2ccc([N+](=O)[O-])cc2)CC1)c1ccccc1 | active: 0.282 µM

(next part)

SMILES | Potency
Cc1[nH]c2ccccc2c1CCN(Cc1cccnc1)C(=S)NC(C)(C)C | inconclusive: 22.4 µM [inhibitor, single point]
COc1cc(C(=O)N/N=C(\C)c2ccc(NC(=O)Cc3ccccc3)cc2)ccc1O | inactive
N=Nc1c(O)n(CC(=O)Nc2ccccc2)c2ccccc12 | inconclusive: 0.447 µM [inhibitor, full curve, poor fit]
CCOc1ccc2c(c1)n([O-])c1c([n+]2=O)CCCC1 | active: 12.6 µM
CCOC(=O)c1[nH]c2cc3c(cc2c1NC(=O)CN1CCc2ccccc2C1)OCO3 | inconclusive: 35.5 µM [activator, single point]
Cc1onc(-c2ccccc2)c1C(=O)Nc1ccc(S(=O)(=O)N2CCOCC2)cc1 | inactive
CC(C(=O)Nc1cccc([N+](=O)[O-])c1)[n+]1ccccc1 (configuration not stated) | inconclusive: 14.1 µM [inhibitor, single point]
CCn1c(C)cc(/C=C2/NC(=O)N(Cc3ccccc3F)C2=O)c1C | inconclusive: 3.16 µM [activator, single point]
O=C(Nc1cccc(Cl)c1)c1ccc(F)c(S(=O)(=O)N2CCN(c3ccccn3)CC2)c1 | inconclusive: 22.4 µM [activator, single point]
Cc1cc(C)n(-c2nc(NCCCN(C)C)c3c4c(sc3n2)COC(C)(C)C4)n1 | inconclusive: 6.31 µM [inhibitor, single point]
O=c1c2ccccc2nc(COc2ccccc2)n1/N=C/c1ccco1 | inconclusive: 35.5 µM [inhibitor, single point]
O=C(C1CCC(CNc2nc(=S)[nH]c3ccccc23)CC1)N1CCN(c2ccccn2)CC1 (configuration not stated) | inactive
O=C(O)C1NCCc2ccccc21 (configuration not stated) | inactive
O=S(=O)(Nc1nc2ccccc2nc1N1CCN(c2ccccc2)CC1)c1ccc(F)cc1 | inactive
CC(=O)c1ccc(NC(=O)C2Cc3ccccc3CN2C(=O)c2ccccc2)cc1 (configuration not stated) | inconclusive: 12.6 µM [activator, partial curve]
CCOC(=O)C1=C(c2ccccc2)NC(=S)NC1c1cccc([N+](=O)[O-])c1 (configuration not stated) | inconclusive: 17.8 µM [inhibitor, single point]
O=C(Nc1ccc(Cl)cc1)N1CCC(c2ccccc2)C1 (configuration not stated) | inactive
S=c1nc(-c2ccccc2Br)[nH][nH]1 | inconclusive: 6.31 µM [inhibitor, single point]
CC1(C)CC2(CC(c3ccccc3F)c3ccc(O)c(O)c3O2)NC(=S)N1 (configuration not stated) | inactive
O=[N+]([O-])c1cccc(-c2ccc(/C=N/Nc3nc(N4CCCCC4)nc(N4CCCCC4)n3)o2)c1 | active: 10 µM
Cc1cc(N2C(=O)C(O)=C(C(=O)c3ccc(C)o3)C2c2ccc(OCc3ccccc3)cc2)no1 (configuration not stated) | inactive
CC(C)NC(=O)c1ccc(COc2ccc(C(C)(C)C)cc2)o1 | inconclusive: 35.5 µM [inhibitor, single point]
COc1ccc(OC)c(C(=O)NC(CC(N)=O)c2ccc(NCCOc3ccccc3)c([N+](=O)[O-])c2)c1 (configuration not stated) | inactive
O=C(O)c1c2c(nc3ccc(S(=O)(=O)N4CCC(C(=O)NC5CCCC5)CC4)cc13)CCCCC2 | inconclusive: 1.41 µM [inhibitor, partial curve]
Oc1ccc(/C=N/Nc2nc(N3CCCC3)nc(N3CCCC3)n2)cc1O | inconclusive: 17.8 µM [inhibitor, partial curve]
